Source: paper PMC4455066

Tests used:
[1] = biological target: Mtl1, split-tag bait (first purification step) (S. pombe); test: affinity purification with mass spectrometry; split-tag purification: first step by Mtl1, second step by Iss10, Cbc1 or Pab2; from S. pombe cell extract
[2] = biological target: T1, Cbc1, split-tag bait (second purification step) (S. pombe) (UniProt O14253); test: as above
T1 sequence: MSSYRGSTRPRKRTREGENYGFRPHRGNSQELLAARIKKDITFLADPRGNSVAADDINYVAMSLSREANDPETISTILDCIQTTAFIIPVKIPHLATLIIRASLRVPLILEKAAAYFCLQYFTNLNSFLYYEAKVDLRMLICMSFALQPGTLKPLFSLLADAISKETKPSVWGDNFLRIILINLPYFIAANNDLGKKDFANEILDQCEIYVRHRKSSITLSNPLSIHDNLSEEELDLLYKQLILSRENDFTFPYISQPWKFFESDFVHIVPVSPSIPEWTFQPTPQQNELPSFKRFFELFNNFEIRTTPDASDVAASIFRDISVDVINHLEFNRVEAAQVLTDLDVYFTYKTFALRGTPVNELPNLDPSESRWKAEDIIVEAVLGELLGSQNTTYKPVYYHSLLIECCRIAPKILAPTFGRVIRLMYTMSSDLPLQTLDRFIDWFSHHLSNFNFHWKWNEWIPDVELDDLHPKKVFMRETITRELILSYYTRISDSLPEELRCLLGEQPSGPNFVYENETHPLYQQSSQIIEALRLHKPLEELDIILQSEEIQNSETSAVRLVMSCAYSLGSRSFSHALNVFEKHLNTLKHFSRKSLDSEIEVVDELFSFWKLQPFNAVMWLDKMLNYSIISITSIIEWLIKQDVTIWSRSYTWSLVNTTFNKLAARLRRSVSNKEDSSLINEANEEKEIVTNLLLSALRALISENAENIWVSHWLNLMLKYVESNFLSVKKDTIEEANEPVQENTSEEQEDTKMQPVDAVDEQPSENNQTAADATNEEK

[3] = biological target: T2, Pab2, split-tag bait (second purification step) (S. pombe) (UniProt O14327); test: as above
T2 sequence: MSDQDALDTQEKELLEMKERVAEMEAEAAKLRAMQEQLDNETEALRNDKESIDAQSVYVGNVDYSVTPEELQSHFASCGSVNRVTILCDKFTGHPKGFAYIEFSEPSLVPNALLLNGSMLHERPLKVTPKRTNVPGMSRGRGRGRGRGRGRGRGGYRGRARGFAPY

[4] = biological target: Iss10, split-tag bait (second purification step) (S. pombe); test: as above
Nrl1–FTP (S. pombe) = test: affinity purification with mass spectrometry; tandem affinity purification of an FTP-tagged bait from S. pombe cell extract (IgG beads, TEV cleavage with Benzonase, anti-Flag beads, Flag peptide elution); 50 mM HEPES pH 7.0, 100 mM NaCl, 1.5 mM MgCl2, 0.15% NP-40; MALDI-TOF of single bands and LC-MS/MS of the whole eluate; wild-type cells, also red1Δ and rmn1Δ backgrounds
Red5–FTP (S. pombe) = test: as above
Mtl1–FTP (S. pombe) = test: as above
Ctr1–FTP (S. pombe) = test: as above
Red1–FTP (S. pombe) = biological target: T3, Red1–FTP (S. pombe) (UniProt Q9UTR8); test: as above
T3 sequence: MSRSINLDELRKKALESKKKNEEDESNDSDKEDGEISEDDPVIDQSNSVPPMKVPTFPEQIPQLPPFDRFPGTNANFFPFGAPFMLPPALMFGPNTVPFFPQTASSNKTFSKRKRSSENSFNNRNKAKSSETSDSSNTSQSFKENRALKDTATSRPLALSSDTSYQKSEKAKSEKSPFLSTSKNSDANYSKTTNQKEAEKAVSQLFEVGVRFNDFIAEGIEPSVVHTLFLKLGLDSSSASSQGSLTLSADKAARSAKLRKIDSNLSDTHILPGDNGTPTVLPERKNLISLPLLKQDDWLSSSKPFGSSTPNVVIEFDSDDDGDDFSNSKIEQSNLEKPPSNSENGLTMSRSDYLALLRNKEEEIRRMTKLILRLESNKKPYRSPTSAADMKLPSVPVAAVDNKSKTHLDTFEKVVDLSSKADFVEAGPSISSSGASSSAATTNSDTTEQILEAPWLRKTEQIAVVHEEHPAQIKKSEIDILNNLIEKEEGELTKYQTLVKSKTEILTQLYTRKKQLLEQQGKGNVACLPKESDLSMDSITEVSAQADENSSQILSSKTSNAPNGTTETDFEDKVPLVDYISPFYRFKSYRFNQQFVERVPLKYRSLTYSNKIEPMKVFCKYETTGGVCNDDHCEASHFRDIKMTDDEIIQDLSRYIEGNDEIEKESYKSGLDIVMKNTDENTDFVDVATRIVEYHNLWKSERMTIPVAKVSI

binding [1]: binds
binding [2]: binds
binding [3]: binds
binding [4]: binds
binding (Nrl1–FTP (S. pombe)): binds
binding (Red5–FTP (S. pombe)): binds
binding (Mtl1–FTP (S. pombe)): binds
binding (Ctr1–FTP (S. pombe)): binds
binding (Red1–FTP (S. pombe)): binds
B1: Mmi1 (protein, UniProt O74958 1-488)
chain: MSNTNFSTSRSSKSIPELPNLEALRSLWPPPSLNESGDTRSVWTTHTGEPVASSVLSTSGSNNFSSPLKRPAPESHDAPIGRRLMVDDPRLIKHGKYDFSRHCTDYGHSYEWPYFRSLRRESMLYHTSGSYPESQPPYSSYSTDAPHYYHAGSESSAYYDSRSRLHGIQPPPKRRTLSPPPRRLADPVVVGSSRYVEEEVYRRPPYTLASEVPSSASAYQAGYSSYPVRSSPQLSHEDTRHGIASSGSTRYPFVPANTRASHSPSLLEPYAHSLPSSVAPVGAYPEKSSYLLSNSSNDSASRKEKPKARASTPPPLNFSRASEHRNEKGERISMINPRVVLDENGISHRSRYFIMLCDNETAIAHAKKTSIWAVKKDSSKRISDAYKKASVYFIFVAQQTYNALGYAQVVSDLNSTELPFWSDSSHAGGVRIKWIKTCNLFSAEISEIVSHMDHGSEARDGMEMMYDEGSRLCTLINYAIMKRIGRDR

No constants are given. Whether binding was seen depends on the method and setting. Binding seen in cells or lysates may run through a third protein. Here binding means that the protein was enriched with, or labelled near, the bait; the list need not be complete. For part of these data: Tags and fused reporters may be left off the sequences shown.
